Values from PubChem BioAssay AID1259286 (Sanger Institute, 2017)
Aim: 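Kinases whose loss adds to targeted drug killing of colorectal cancer cells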 (primary screen). Cells: NCI-H630 human colorectal cancer cells. Reagents: siRNA pool against human genes. Treatment: anchor drugs BYL719 at 1 µM, cetuximab at 5 µg/ml or trametinib at 10 nM, or DMSO vehicle alone; exposure time not given. Measurement: 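Viability relative to non-targeting pool wells, averaged over replicates, with robust z-score for knock-down alone and a synergy score for each anchor drug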. Reading the numbers: viability z-score, knock-down alone: higher = more viable cells, weaker knock-down effect; viability vs control, knock-down alone: higher = more viable cells. Rule for the call: 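Essential call: robust z-score of viability with siRNA alone lower than -3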. Meaning of the calls: active = essential when knocked down alone; inactive = not essential alone.
This is an unselected part of 794 reagents. 17 of them (2.1%) were called active. 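Calls use knock-down alone only; synergy above 0.15 marked separately; viability seems capped at control level; exposure time not given.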 Further read-outs or replicates are left out here. The record does not give: the amount of reagent, the time to read-out.

The opening 2 records, ahead of the listing:
gene symbol	PubChem SID	viability z-score, knock-down alone	viability vs control, knock-down alone (fraction of control)	call
PRKD2 (protein kinase D2)	SID135620789	0.464	1	inactive
ACVR2A (activin A receptor type 2A)	SID152150723	0.464	1	inactive

Main list, from the first entry:
gene symbol	PubChem SID	viability z-score, knock-down alone	viability vs control, knock-down alone (fraction of control)	call
PRKD2 (protein kinase D2)	SID135620789	0.464	1	inactive
ACVR2A (activin A receptor type 2A)	SID152150723	0.464	1	inactive
NUAK2 (NUAK family kinase 2)	SID56479046	-0.0619	0.98	inactive
PRKCZ (protein kinase C zeta)	SID56478675	-6.82	0.724	active
PIM3 (Pim-3 proto-oncogene, serine/threonine kinase)	SID135625114	0.464	1	inactive
SRGAP3 (SLIT-ROBO Rho GTPase activating protein 3)	SID152151814	0.464	1	inactive
AURKA (aurora kinase A)	SID135620696	-3.34	0.856	active
ETNK2 (ethanolamine kinase 2)	SID56478982	0.464	1	inactive
ERN1 (endoplasmic reticulum to nucleus signaling 1)	SID135620914	0.464	1	inactive
TAOK2 (TAO kinase 2)	SID57288958	0.464	1	inactive
CTCF (CCCTC-binding factor)	SID135623925	0.464	1	inactive
PTPN11 (protein tyrosine phosphatase non-receptor type 11)	SID134310183	0.464	1	inactive
MAST2 (microtubule associated serine/threonine kinase 2)	SID152154248	0.464	1	inactive
CDK2 (cyclin dependent kinase 2)	SID56478596	-0.293	0.971	inactive
KDR (kinase insert domain receptor)	SID56478526	0.464	1	inactive
PRKAG2 (protein kinase AMP-activated non-catalytic subunit gamma 2)	SID135621825	0.464	1	inactive
MELK (maternal embryonic leucine zipper kinase)	SID56478756	0.464	1	inactive
TRIO (trio Rho guanine nucleotide exchange factor)	SID56478974	-0.281	0.972	inactive
NTRK1 (neurotrophic receptor tyrosine kinase 1)	SID152154627	0.464	1	inactive
FLT3 (fms related receptor tyrosine kinase 3)	SID152150278	-0.732	0.955	inactive
IRAK2 (interleukin 1 receptor associated kinase 2)	SID152151590	-0.932	0.947	inactive
MAK (male germ cell associated kinase)	SID56478884	0.398	0.997	inactive
UHMK1 (U2AF homology motif kinase 1)	SID152150381	-1.19	0.938	inactive
PMVK (phosphomevalonate kinase)	SID135621255	0.464	1	inactive
CDKN2B (cyclin dependent kinase inhibitor 2B)	SID135620642	-1.09	0.941	inactive
WHR1 (winged helix repair factor 1)	SID152154332	0.464	1	inactive
CKMT2 (creatine kinase, mitochondrial 2)	SID152154085	0.337	0.995	inactive
RPS6KB1 (ribosomal protein S6 kinase B1)	SID152147142	0.464	1	inactive
KSR1 (kinase suppressor of ras 1)	SID152156641	-2.73	0.879	inactive
LMTK1 (lemur tail kinase 1)	SID152151616	-2.42	0.891	inactive
PRKCSH (PRKCSH beta subunit of glucosidase II)	SID56479239	0.464	1	inactive
TP53RK (TP53 regulating kinase)	SID135620611	0.464	1	inactive
PI4KB (phosphatidylinositol 4-kinase beta)	SID135621252	0.464	1	inactive
IPMK (inositol polyphosphate multikinase)	SID152147042	0.464	1	inactive
TPK1 (thiamin pyrophosphokinase 1)	SID135621256	-1.4	0.93	inactive
ATM (ATM serine/threonine kinase)	SID152150358	0.353	0.996	inactive
RPS6KA5 (ribosomal protein S6 kinase A5)	SID135620863	0.464	1	inactive
PRKCG (protein kinase C gamma)	SID56478828	0.464	1	inactive
LATS2 (large tumor suppressor kinase 2)	SID152149461	0.464	1	inactive
POMK (protein O-mannose kinase)	SID56479008	0.115	0.987	inactive
BMPR1B (bone morphogenetic protein receptor type 1B)	SID56478926	0.464	1	inactive
HK1 (hexokinase 1)	SID56479165	0.464	1	inactive
MARK4 (microtubule affinity regulating kinase 4)	SID56479022	0.464	1	inactive
MARK3 (microtubule affinity regulating kinase 3)	SID56478669	0.464	1	inactive
TPD52L3 (TPD52 like 3)	SID56479192	0.464	1	inactive
CDK3 (cyclin dependent kinase 3)	SID56478597	0.464	1	inactive
MAP4K4 (mitogen-activated protein kinase kinase kinase kinase 4)	SID56478747	-3.91	0.835	active
TAF1 (TATA-box binding protein associated factor 1)	SID56478970	0.169	0.989	inactive
AMER1 (APC membrane recruitment protein 1)	SID135623077	0.464	1	inactive
NIM1K (NIM1 serine/threonine protein kinase)	SID56478948	-0.392	0.968	inactive
CDK1 (cyclin dependent kinase 1)	SID56478584	-0.396	0.967	inactive
INSR (insulin receptor)	SID152149459	-0.237	0.973	inactive
TRPM7	SID152149681	-0.168	0.976	inactive
NUP107 (nucleoporin 107)	SID152154550	-0.912	0.948	inactive
AKT1 (AKT serine/threonine kinase 1)	SID135620599	0.464	1	inactive
GUCY2F (guanylate cyclase 2F, retinal)	SID152150427	0.464	1	inactive
TAB1 (TGF-beta activated kinase 1 (MAP3K7) binding protein 1)	SID135620883	0.399	0.998	inactive
PRKACB (protein kinase cAMP-activated catalytic subunit beta)	SID56478825	0.464	1	inactive
PIM1 (Pim-1 proto-oncogene, serine/threonine kinase)	SID56478736	0.464	1	inactive
KHK (ketohexokinase)	SID135621242	0.464	1	inactive
CLK4 (CDC like kinase 4)	SID56478876	0.464	1	inactive
PRKAB2 (protein kinase AMP-activated non-catalytic subunit beta 2)	SID134312706	0.464	1	inactive
KALRN (kalirin RhoGEF kinase)	SID134314670	0.464	1	inactive
